{"source": "the supplement of paper PMC4604168 (melanoma cell lines)", "note": "Some of the results follow. Single values are uncertain, as repeats are few or missing.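 Imaging used 1,536-well plates; nuclei positive for cleaved PARP by antibody were divided by total DNA-stained nuclei to yield the apoptosis fraction. Doses for screening kept most cells viable, and cell lines differ markedly in resting and induced cleaved-PARP levels.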"}
{"test_system": "CBRC014 (line from a melanoma biopsy)", "test": "cleaved PARP positive nuclei fraction relative to DMSO control; melanoma cells; higher = more apoptosis", "conditions": "library dose: low library concentration; 72 h", "units": {"cleaved PARP positive nuclei fraction": "%"}}
{"smiles": "Nc1ccn([C@@H]2O[C@H](CO)[C@@H](O)C2(F)F)c(=O)n1", "note": "[gemcitabine] + O=S(=O)(c1ccccc1)N(CC(F)(F)F)c1ccc(C(O)(C(F)(F)F)C(F)(F)F)cc1 [T0901317] (first compound 0.0004 µM, partner dose 1.4 µM)", "cleaved PARP positive nuclei fraction": 130}
{"smiles": "Nc1ncn([C@H]2C[C@H](O)[C@@H](CO)O2)c(=O)n1", "note": "[decitabine] + O=C(Nc1ccccc1)c1cc([N+](=O)[O-])ccc1Cl [GW9662] (first compound 0.1 µM, partner dose 2 µM)", "cleaved PARP positive nuclei fraction": 1100}
{"smiles": "Nc1nc(F)nc2c1ncn2[C@@H]1O[C@H](CO)[C@@H](O)[C@@H]1O", "note": "[fludarabine] + Cn1cc(/C=C2\\C(=O)Nc3cccnc32)c2ccccc21 [GW441756] (first compound 0.2 µM, partner dose 0.4 µM)", "cleaved PARP positive nuclei fraction": 82.9}
{"smiles": "Nc1ccn([C@@H]2O[C@H](CO)[C@@H](O)C2(F)F)c(=O)n1", "note": "[gemcitabine] + CCN(CC)CCCCNc1ncc2cc(-c3cc(OC)cc(OC)c3)c(NC(=O)NC(C)(C)C)nc2n1 [PD173074] (first compound 0.0004 µM, partner dose 0.1 µM)", "cleaved PARP positive nuclei fraction": 148}
{"smiles": "CCCS(=O)(=O)Nc1ccc(F)c(C(=O)c2c[nH]c3ncc(Cl)cc23)c1F", "note": "+ COc1ccc(COc2ccc(Cc3cnc(N)nc3N)cc2OC)cc1 [GW2580] (first compound 0.08 µM, partner dose 1 µM)", "cleaved PARP positive nuclei fraction": 132}
{"smiles": "Nc1ccn([C@@H]2O[C@H](CO)[C@@H](O)C2(F)F)c(=O)n1", "note": "[gemcitabine] + CCc1ccc(CCOc2ccc(CC3SC(=O)NC3=O)cc2)nc1 [pioglitazone] (first compound 0.0004 µM, partner dose 2 µM)", "cleaved PARP positive nuclei fraction": 1000}
